Experimental data reported in PubChem BioAssay AID463116 (University of Pittsburgh Molecular Library Screening Center, 2010).
The other results are listed elsewhere or left out.

experiment: dynein cargo transport inhibitors, GR-EGFP translocation, confirmation, imaging, high-content imaging, GR-EGFP cells (AID 463116); conditions: 3617.4 GR-EGFP nuclear translocation imaging, dexamethasone-induced; measured here: cell count per field; at 20 µM

| SMILES | z-score |
| --- | --- |
| O=[N+]([O-])c1cc([N+](=O)[O-])c(-n2nnc3ccccc32)c([N+](=O)[O-])c1 | 0.398 |
| Cc1c2non([O-])c-2c(C)[n+](=O)[n+]1[O-] | -3.36 |
| O=c1c2cc([N+](=O)[O-])ccc2[nH]c2c([N+](=O)[O-])cc([N+](=O)[O-])cc12 | 0.15 |
